# PubChem BioAssay AID540276 (National Center for Advancing Translational Sciences (NCATS), 2011)
# Several values for one entry are separate records, joined by “and”; a condition that tells them apart may be missing. Equal entries are not always repeated. Among all 300,000 compounds or so, about 5,400 (1.8%) were called active. Inconclusive results, whose numbers are uncertain, are shown with a selection of clear calls. The call rests on the fitted dose curve; tested in HEK293 cells. Potencies beside an inconclusive call are fits to weak or partial responses and may not hold up.
# Assay: qHTS for inhibitors of binding or entry into cells for Marburg Virus
# Conditions: Marburg virus pseudotyped entry inhibition, cell reporter; activity change, negative = inhibition: at 37.8 µM (top of the series) unless noted
# On the % scale 0 is the no-effect control and ±100 the full control effect; potency means the concentration at half of the fitted maximal effect.
Compound,Potency,"activity change, negative = inhibition"
Cn1c(=O)c2c(nc(/C=C/c3cccc(Cl)c3)n2C)n(C)c1=O,"inconclusive: 29.1 µM [inhibitor, single point]",–
O=S1(=O)N[C@@H](Cc2ccccc2)COc2cc(N3CCCCC3)ccc21,"inconclusive: 8.87 µM [activator, full curve, poor fit]",–
COc1cccc(-n2cc(CN(C)Cc3nc(Cc4cccc(F)c4)no3)cn2)c1,–,inactive: 5.58% [at 46.1 µM]
CC1=C(c2ccc(C)c(C)c2)S(=O)(=O)N=C1N1CCN(c2cccc(C)c2)C(C)C1 (stereo not drawn),–,inactive: -3.56% [at 46.1 µM]
CC(C)(C)NC(=O)CN(C(=O)CN1C(=O)C(=O)c2ccccc21)C(C)(C)C,–,inactive: -0.83% [at 46.1 µM]
COc1ccc(C(=O)N2CCCCC2CCN2CCOCC2)cc1 (stereo not drawn),–,inactive: -4.13% [at 46.1 µM]
Cc1ccc(C)c(N/C(N)=N/c2nc(C)cc(C)n2)c1,"inconclusive: 35.5 µM [inhibitor, single point]",–
CCCC1=C(C(=O)OCC)C(c2ccccc2OCC)NC(=O)N1C (stereo not drawn),"inconclusive: 1.3 µM [inhibitor, full curve]",–
CCC(CC)C(=O)Nc1nnc(S(=O)(=O)N(CC)c2ccc(OC)cc2)s1,"inconclusive: 35.5 µM [inhibitor, partial curve, poor fit]",–
CCOc1ccc(NC(=O)CC2Nc3cccc4cccc(c34)NC2=O)cc1 (stereo not drawn),"inconclusive: 15.8 µM [inhibitor, single point]",–
COc1ccc([N+](=O)[O-])cc1-n1cccc1,"inconclusive: 3.55 µM [activator, single point]",–
Cc1ccc(CCC(=O)Nc2ncc(Cc3cccc(Cl)c3Cl)s2)o1,"inconclusive: 0.794 µM [inhibitor, full curve, poor fit]",–
Cc1ccc(NCc2cccn2-c2nnc(N3CCC(C(=O)NCc4ccccc4C)CC3)s2)cc1,–,inactive: 5.97% [at 46.1 µM]
C=CCn1c(=O)c2ccccc2n2c(SCC(=O)O)nnc12,–,inactive: -3.13% [at 46.1 µM]
O=C(Nc1ccc2ccccc2c1)/C(=C/c1cccc(Br)c1)NC(=O)c1ccco1,"inconclusive: 14.1 µM [inhibitor, single point]",–
Cc1sc2ncnc(SCC(=O)Nc3ccc(S(=O)(=O)N4CCOCC4)cc3)c2c1C,"inconclusive: 20 µM [inhibitor, single point]",–
CCOC(=O)c1c(S(=O)(=O)Nc2ccc(CN3CCC(C)CC3)cc2)c(C)n(C)c1C,"inconclusive: 22.4 µM [inhibitor, partial curve, poor fit]",–
COc1cccc(COc2ccc3ccc(=O)oc3c2)c1,–,inactive: 18.4% [at 46.1 µM]
CC1CCN(C(=O)CN2c3ccc(Br)cc3-c3ccccc3S2(=O)=O)CC1,"inconclusive: 1.58 µM [activator, partial curve, poor fit]",–
CN(C)c1ccc(NC(=O)c2cccc(C(=O)Nc3ccc(N(C)C)cc3)n2)cc1,"inconclusive: 20 µM [inhibitor, partial curve, poor fit]",–
Cc1nn(-c2ccccc2)c2c1CC(=O)Nc1ccccc1-2,"inconclusive: 1.58 µM [inhibitor, partial curve, poor fit]",–
CCOC(=O)c1oc2ccccc2c1NC(=O)c1ccc2c(c1)OCO2,"inconclusive: 29.1 µM [inhibitor, single point]",–
CCN1CCC(NC(=O)Nc2ccc(F)cc2F)CC1,"inconclusive: 0.631 µM [inhibitor, full curve, poor fit]",–

Compound,Potency,"activity change, negative = inhibition"
COc1ccc(-c2nn(-c3ccccc3)cc2C(=O)N2CCN(S(=O)(=O)c3ccccc3C#N)CC2)cc1,"inconclusive: 3.16 µM [inhibitor, full curve]",–
COc1ccc(-c2nnc(SCC(=O)N3CCCCC3)o2)cc1,"inactive and inconclusive: 2.82 µM [activator, full curve]",–
CNc1nc(N/N=C/c2cc3c(cc2[N+](=O)[O-])OCO3)nc(Nc2ccccc2)n1,active: 16.4 µM,–
O=C(COC(=O)Cc1c(F)cccc1Cl)Nc1ccc2[nH]c(=O)[nH]c2c1,–,inactive: -4.75% [at 46.1 µM]
CCc1ccc(OCC(=O)Nc2cc3oc4ccccc4c3cc2OC)c(Br)c1,"inconclusive: 1.26 µM [activator, partial curve, poor fit]",–
Oc1ccc(O)c(Cc2nc3ccccc3s2)c1,"inconclusive: 10 µM [inhibitor, partial curve, poor fit]",–
CCOc1ccc2c(c1)c(=O)c(S(=O)(=O)c1ccc(CC)cc1)cn2CC,"inconclusive: 35.5 µM [inhibitor, single point]",–
N#Cc1ccc(OCC(=O)N/N=C2\CCc3ccccc32)cc1,–,inactive: 8.51%
COc1cc(/C=C2\SC(=O)N(Cc3ccc(F)cc3)C2=O)cc([N+](=O)[O-])c1O,"inconclusive: 1.78 µM [inhibitor, partial curve, poor fit]",–
COc1cccc(-c2nc(-c3cccs3)no2)c1,"inconclusive: 2.51 µM [inhibitor, single point]",–
CCc1ccc(C(=O)/C=C/NCc2ccc(F)cc2)cc1,"inconclusive: 0.631 µM [inhibitor, full curve, poor fit]",–
COC(=O)c1ccc(C2c3c(-c4ccc(Br)cc4)n[nH]c3C(=O)N2c2ccc(Cl)cc2)cc1 (stereo not drawn),"inconclusive: 22.4 µM [inhibitor, single point]",–
CC(=O)c1cccc(NC(=O)c2ccc([N+](=O)[O-])o2)c1,"inconclusive: 35.5 µM [inhibitor, single point]",–
COc1ccccc1C(=O)Nc1ccnn1C1CCN(C2CCSCC2)CC1,"inconclusive: 7.94 µM [activator, partial curve]",–
Cc1oc(-c2ccccc2F)nc1CS(=O)CC(=O)NC1CC1 (stereo not drawn),–,inactive: 6.61% [at 46.1 µM]
C#CCCCO/N=C1\C[C@@H](O)[C@@H](O)[C@@H]2[C@@H]3C(=O)N(c4ccc(F)cc4F)C(=O)[C@@H]3CC[C@@H]12,–,inactive: -7.98% [at 14.2 µM]
O=C(NCCc1cn2ccccc2n1)c1cc(COc2ccc3ncccc3c2)on1,active: 5.62 µM,–
Cc1cc(OCCN2CCCC2)ccc1[N+](=O)[O-],"inconclusive: 35.5 µM [activator, single point]",–
Cc1ccc(-c2cc(N)n(Cc3ccc(Cl)cc3)n2)cc1,"inconclusive: 35.5 µM [inhibitor, single point]",–
COc1ccc(C2=NN(C(=O)COc3ncnc4ccccc34)C(c3ccco3)C2)cc1 (stereo not drawn),"inconclusive: 4.47 µM [inhibitor, full curve, poor fit]",–
CCN(CC(=O)Nc1ccc2c(c1)OCO2)Cc1nc2ccccc2c(=O)[nH]1,–,inactive: -6.24% [at 46.1 µM]
CCOC(=O)C1CCN(CC(=O)c2c(C)[nH]c3cc(C)ccc23)CC1,"inconclusive: 35.5 µM [inhibitor, single point]",–
CCOc1cccc(C(=O)Nc2ccc(N3CCCC3)cc2)c1,"inconclusive: 7.94 µM [activator, single point]",–

# Whole records, quoted from the list.
# CCC(CC)C(=O)Nc1nnc(S(=O)(=O)N(CC)c2ccc(OC)cc2)s1 in the list: Potency: inconclusive: 35.5 µM [inhibitor, partial curve, poor fit]
# COc1ccc(C2=NN(C(=O)COc3ncnc4ccccc34)C(c3ccco3)C2)cc1 (stereo not drawn) in the list: Potency: inconclusive: 4.47 µM [inhibitor, full curve, poor fit]
# CN(C)c1ccc(NC(=O)c2cccc(C(=O)Nc3ccc(N(C)C)cc3)n2)cc1 in the list: Potency: inconclusive: 20 µM [inhibitor, partial curve, poor fit]
# O=C(Nc1ccc2ccccc2c1)/C(=C/c1cccc(Br)c1)NC(=O)c1ccco1 in the list: Potency: inconclusive: 14.1 µM [inhibitor, single point]

# The listing continues.

Compound,Potency,"activity change, negative = inhibition"
O=C(Nc1ccc2nc(-c3ccc(Br)o3)[nH]c2c1)c1ccco1,"inconclusive: 3.55 µM [inhibitor, single point]",–
COC1=CCC2([N+](=O)[O-])CN(CCO)CC1([N+](=O)[O-])C2 (stereo not drawn),"inconclusive: 35.5 µM [activator, single point]",–
C/C(=N/OCO/N=C(/C)c1ccc(F)cc1)c1ccc(F)cc1,"inconclusive: 6.31 µM [inhibitor, single point]",–
O=C(c1cccs1)N1CCCC1,–,inactive: 13%
COCC(C)N=C1NN=C(c2c[nH]c3ccccc23)CS1 (stereo not drawn),–,inactive: 15.9%
Cc1cc(Nc2ccccc2F)n2nc(Cc3ccc(Cl)cc3)nc2n1,"inconclusive: 6.31 µM [inhibitor, single point]",–
CCCN(CCC)C1Cc2cc(OC)c(OC)cc2C1,"inconclusive: 35.5 µM [inhibitor, single point]",–
C/C(=N\NC(=O)c1cc(-c2cccnc2)nc2ccccc12)c1ccccc1O,active: 10 µM,–
COC(=O)c1sc(NC(=O)c2ccc(Cn3cc(Cl)cn3)o2)c(C#N)c1C,"inconclusive: 12.6 µM [inhibitor, partial curve, poor fit]",–
Cc1cc(-n2cnc(-c3cn[nH]c3C)n2)no1,–,inactive: -9.08% [at 46.1 µM]
O=C(O)c1cc(-c2ccc3ccccc3n2)nc2ccccc12,"inconclusive: 14.1 µM [inhibitor, partial curve, poor fit]",–
O=C(O)CCn1cc(C2CC(c3ccccc3)=NN2c2ccccc2)c(-c2ccccc2)n1 (stereo not drawn),"inconclusive: 7.08 µM [inhibitor, partial curve]",–
CCNc1nc(NCC)nc(OCCOC(=O)c2ccccc2)n1,–,inactive: 11.5%
COc1ccc(S(=O)(=O)N2CCN(C)CC2)cc1C(=O)N1CCCCC1,"inconclusive: 0.0891 µM [inhibitor, full curve, poor fit]",–
CN(C(=O)c1ccc(OC2CCN(S(=O)(=O)N(C)C)CC2)cc1)C1CCCCC1,"inconclusive: 35.5 µM [activator, single point]",–
Fc1cnc(N2CCc3ccccc32)nc1N1CCc2ccccc21,"inconclusive: 11.6 µM [activator, single point]",–
CCc1nc(C)cn1S(=O)(=O)c1ccc([N+](=O)[O-])cc1,–,inactive: -11.2% [at 46.1 µM]
CCCNCc1cc(OC)c(OCC(=O)NCCc2ccccc2)cc1Br,"inconclusive: 2.51 µM [inhibitor, partial curve, poor fit]",–
Cc1cccc(CSC(=N)N)c1,"inconclusive: 15.8 µM [inhibitor, single point]",–
COCCNC(=O)Cn1nc(C(F)(F)F)c(Br)c1C,–,inactive: 2.87%
Cc1csc(=Nc2ccc(S(=O)(=O)N3CCOCC3)cc2)n1Cc1ccco1,"inconclusive: 25.1 µM [inhibitor, single point]",–
CCN1C(=O)N[C@@H](CCc2ccccc2)[C@H](C(C)=O)[C@H]1C,"inconclusive: 5.96 µM [activator, single point]",–
